Data source: PubChem BioAssay AID504791 (Drosophila RNAi Screening Center, 2011)

Purpose: 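Genes whose knock-down strengthens or weakens small-RNA reporter silencing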 (primary screen)
Cell system: Drosophila S2-derived reporter cells
Reagents: long dsRNA against Drosophila genes, about 150-250 ng dsRNA per well (siRNA assay); about 80-120 ng (miRNA assay)
Timing: about 5 days (siRNA assay); about 4 days (miRNA assay)
Treatment: copper sulfate induction of reporters: 25 µM (siRNA assay); 200 mM stated (miRNA assay), 1-2 days before reading
Read-out: 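Dual luciferase assay: Renilla to firefly signal ratio in each well, scaled to the mean ratio of its plate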
Rule for the call: 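a well was a first-pass pick when its plate-scaled ratio rose above 1.5 (siRNA assay) or 1.6 (miRNA assay), or dropped below 0.6; a gene counted only if two separate dsRNAs agreed on retest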
In all, the deposit lists about 23,000 reagents; shown is a random part of those with a known target gene and a result. Over the whole deposit, 199 (0.86%) are marked active. 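Plate-scaled ratios behind the calls are not deposited; printed light signals are raw; many rows marked increased or decreased are still called inactive.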 Entries without a mark were called inactive. Not all columns of the deposit are shown. The record does not give: the direction of the score.

gene,DRSC id,stable siRNA reporter change,miRNA reporter change,"stable assay Renilla, run 1 (luminescence)"
CG10324,DRSC14230,,,7535
Tet,DRSC08550,,,11231
Ilp4,DRSC10701,,,6923
CG30183,DRSC04450,,,6698
CG30183,DRSC04472,,,6716
CG12917,DRSC06231,,,6800
CG8773,DRSC16444,,,8139
TH1,DRSC20289,reporter ratio lowered past the hit cutoff (active),reporter ratio lowered past the hit cutoff,8224
CG13404,DRSC19536,,,6814
bsd,DRSC05953,,,7790
CG17075,DRSC00483,,,10403
Pitslre,DRSC11874,,,12124
Pitslre,DRSC23346,,,5275
CG2021,DRSC08546,,,7571
Cpr49Ae,DRSC07201,,,6914
CG7332,DRSC20038,,,7507
CG9021,DRSC03128,,,83795
CG7910,DRSC16341,,,8037
CG7987,DRSC16357,,,9517
CG7970,DRSC08605,,,8537
Ctr1A,DRSC18336,,,3812
Gart,DRSC03481,,,6562
Sod3,DRSC07324,,,6959
CG3776,DRSC04417,,,62276
pav,DRSC08730,,,7888
Bhmt,DRSC02079,,,7611
CG17237,DRSC00491,,,7258
CG13386,DRSC02260,,,7139
CG30377,DRSC06477,,,8018
CG30377,DRSC06799,,,5295
CG18335,DRSC06723,,,7032
Ugt35E2,DRSC16083,,,4863
mRpL38,DRSC19734,,,5643
spoon,DRSC18299,,,7504
SCCRO,DRSC10844,,,6766
TfIIB,DRSC03454,,,6050
CG14005,DRSC02337,,,18081
CG30373,DRSC05081,,,5563
ghi,DRSC08985,,,5891
GXIVsPLA2,DRSC10243,,,8789
GC2,DRSC14476,,,7934
CG17568,DRSC02628,,,4976
CG9926,DRSC16582,,,7630
Spn88Eb,DRSC16093,,,7740
CG9837,DRSC16573,,,6903
Mco4,DRSC20061,,,5092
CG6462,DRSC10641,,,6480

Records listed above called active, once more:
gene,DRSC id,stable siRNA reporter change,miRNA reporter change,"stable assay Renilla, run 1 (luminescence)"
TH1,DRSC20289,reporter ratio lowered past the hit cutoff (active),reporter ratio lowered past the hit cutoff,8224

More results follow.
gene,DRSC id,stable siRNA reporter change,miRNA reporter change,"stable assay Renilla, run 1 (luminescence)"
Polr2I,DRSC16832,,,4812
Set,DRSC16861,,,9314
E23,DRSC00425,reporter ratio raised past the hit cutoff,,6111
E23,DRSC00593,,,7038
CG5139,DRSC00681,,,6568
CG34355,DRSC13639,,,6040
CG34355,DRSC14520,,,6095
CG34355,DRSC14668,,,6535
CG34355,DRSC21687,,,7800
CG11426,DRSC11658,,,7363
CG10116,DRSC09700,,,9418
CG11912,DRSC00332,,,11100
lectin-33A,DRSC02529,,,7638
lectin-33A,DRSC22116,,,9677
Tbcc,DRSC00223,,,4690
CG4009,DRSC15536,,,7122
Tsp39D,DRSC03099,,,6051
Ccdc58,DRSC10218,,,5954
CG3703,DRSC18172,,,6412
CG3703,DRSC18173,,,6380
CG3703,DRSC18643,,,6555
CG15535,DRSC15071,,,6723
CG1504,DRSC20513,,,5368
CG6707,DRSC10697,,,6692
CG31715,DRSC21607,,,8218
Obp83g,DRSC12269,,,6907
eIF3d1,DRSC16938,reporter ratio lowered past the hit cutoff,,4304
Nhe2,DRSC03172,,,7107
Nhe2,DRSC03377,,,7786
CG31817,DRSC01537,,,5967
CG31817,DRSC01538,,,4704
CG31817,DRSC22476,,,2724
fdl,DRSC07279,,,5435
mts,DRSC03574,,reporter ratio raised past the hit cutoff,89683
CG14455,DRSC11712,,,6146
Mdr65,DRSC11220,,,4994
